Laboratory results published in patent publication US20160115467A1 (Biogen, published 2016).
These are yes or no findings as the source states them, for the method shown. Binding can be weak; no strength is given.

Target: human GPIIb/IIIa (αIIbβ3), purified protein (human)
Assay: ELISA on GPIIb/IIIa, signal low relative to flow cytometry

binding	Binder
binds	28F4 (antibody, V domains shown, Mouse monoclonal from BALB/c hybridoma, tested as hybridoma supernatant; also called 28F4 antibody) VH: EVQLVESGGDLVKPGGSLKLSCAASGFTFSNYGMSWVRQTPDKRLEWVATISSGGTYTYYPDSVKGQFTIFRDNAKNTLYLQMSSLKSEDTAMYYCTRRDYDYEGFAYWGQGTLVTVS VL: DIVLTQSPATLSVTPGDSVSLSCRASQSISNNLHWYQQKSHESPRLLIKYASHSISGIPSRFSGSGSGTDFTLSINSVETEDFGMYFCQQSNNWPFTFGSGTKLEIKR
binds	18F7 (antibody, V domains shown, Mouse monoclonal from BALB/c hybridoma, tested as hybridoma supernatant; also called 18F7 antibody) VH: QVQLKESGPGLVAPSQSLSITCTVSGFSLTSYGVSWVRQPPGKGLEWLGIIWGDGSTNYHSVLKSRLSISKDNSKSQVFLKLNSLQTDDTATYYCAKQDFDVWGAGTTVTVSS VL: DVQMIQSPFSLSASLGDIVTMTCQASQGTSINLNWFQQKPGKAPKLLIYGVSNLEDGVPSRFSGSRYGTDFTLTIGSLEDEDMATYFCLQHSYLPYTFGGGTKLEIKR

Target: human GPIIb/IIIa (αIIbβ3), purified protein (human)
Assay: ELISA, binding to the α and/or β subunit of GPIIb/IIIa

Binder	binding
1H6 (antibody, V domains shown, Mouse monoclonal from BALB/c hybridoma, tested as hybridoma supernatant; also called 1H6 antibody) VH: QVQLQQSGAELVRPGTSVKVSCKASGYAFTNYLIEWVKQRPGQGLEWIGVINPGSGGTNYNEKFKGKATLTADKSSSTAYMHLSSLTSDDSAVYFCARGRYEWYFDVWGAGTTVTVSS VL: DIQMTQTTSSLSASLGDRVTISCRASQDITNYLNWYQRKPDGTVKLLIYYTSRLHSGVPSRFSGSGSGTDYSLTISNLEQEDIATYFCQQGYTLPYTFGGGTKLEIKR	binds
38G8 (antibody, V domains shown) VH: QVQLQQSGAELVRPGTSVKVSCKASGYAFTNYLIEWVKQRPGQGLEWIGVINPGSGGTNYNEKFKGKATLTADKSSSTAYMHLSSLTSDDSAVYFCARGRYEWYFDVWGAGTTVTVSS VL: DIQMTQTTSSLSASLGDRVTISCRASQDITNYLNWYQRKPDGTVKLLIYYTSRLHSGVPSRFSGSGSGTDYSLTISNLEQEDIATYFCQQGYTLPYTFGGGTKLEIKR	binds
28F4 (antibody, V domains shown, Mouse monoclonal from BALB/c hybridoma, tested as hybridoma supernatant; also called 28F4 antibody) VH: EVQLVESGGDLVKPGGSLKLSCAASGFTFSNYGMSWVRQTPDKRLEWVATISSGGTYTYYPDSVKGQFTIFRDNAKNTLYLQMSSLKSEDTAMYYCTRRDYDYEGFAYWGQGTLVTVS VL: DIVLTQSPATLSVTPGDSVSLSCRASQSISNNLHWYQQKSHESPRLLIKYASHSISGIPSRFSGSGSGTDFTLSINSVETEDFGMYFCQQSNNWPFTFGSGTKLEIKR	binds
18F7 (antibody, V domains shown, Mouse monoclonal from BALB/c hybridoma, tested as hybridoma supernatant; also called 18F7 antibody) VH: QVQLKESGPGLVAPSQSLSITCTVSGFSLTSYGVSWVRQPPGKGLEWLGIIWGDGSTNYHSVLKSRLSISKDNSKSQVFLKLNSLQTDDTATYYCAKQDFDVWGAGTTVTVSS VL: DVQMIQSPFSLSASLGDIVTMTCQASQGTSINLNWFQQKPGKAPKLLIYGVSNLEDGVPSRFSGSRYGTDFTLTIGSLEDEDMATYFCLQHSYLPYTFGGGTKLEIKR	binds
34D10 (antibody, V domains shown, Mouse monoclonal from BALB/c hybridoma, tested as hybridoma supernatant (detected with anti-mouse IgG); also called monoclonal antibody 34D10; 34D10 antibody) VH: EVKLVESGGGLVKPGGSLKLSCAASGFTFSAYAMSWVRQTPEKRLEWVASISSGGTTYYPDSVKRRFTISRDNARNILYLQMSSLRSEDTAMYYCTRGGDYGYALDYWGQGTSVTVSS VL: ENVLTQSPAIMSASLGEKVTMSCRASSSVNYMYWYQQKSDASPKLWIYYTSNLAPGVPARFSGSGSGNSYSLTISSMEGEDAATYYCQQFSSSPWTFGGGTKLEIKR	binds
35D1 (antibody, V domains shown) VH: EVKLVESGGGLVKPGGSLKLSCAASGFTFSAYAMSWVRQTPEKRLEWVASISSGGTTYYPDSVKRRFTISRDNARNILYLQMSSLRSEDTAMYYCTRGGDYGYALDYWGQGTSVTVSS VL: ENVLTQSPAIMSASLGEKVTMSCRASSSVNYMYWYQQKSDASPKLWIYYTSNLAPGVPARFSGSGSGNSYSLTISSMEGEDAATYYCQQFSSSPWTFGGGTKLEIKR	binds

More lines, now with the values ahead:

binding	Binder
binds	12B2 (antibody, V domains shown, Mouse monoclonal from BALB/c hybridoma, tested as hybridoma supernatant; also called 12B2 antibody) VH: QVQLQQSGAELTKPGASVKISCKATGYTFSSYWIEWVKQRPGHGLEWIGEILPGSGITKYNDKFKGKATFTADTSSNTAYMQLSSLTSEDSAVYSCARLISYYYAMDYWGQGTSVTVSS VL: DIQMTQTTSSLSASLGDRVTISCRASQDISNYLNWYQQKPDGTVKLLIYYTSRLHSGVPSRFSGSGSGTDYSLTISNLEQEDIATYFCQQGNTLPPTFGGGTKLEIKR
binds	38A8 (antibody, V domains shown, Mouse monoclonal from BALB/c hybridoma, tested as hybridoma supernatant; also called 38A8 antibody) VH: QVQLQQSGAELVRPGTSVKVSCKASGYAFTNYLIEWIKQRPGQGLEWIGVINPGSGGTNYNEKFKGKATLTADKSSSTAYMQLSSLTSDDSAVYFCARGRYEWYFDVWGAGTTVTVSS VL: DIQMTQTTSSLSASLGDRVTISCRASQDISNYLNWYLQKPDGTVKLLIYYTSRLHSGVPSRFSGSGSGTDYSLSISNLEQEDIATYFCQQGYTLPYTFGGGTKLEIKR
binds	28C2 (antibody, V domains shown, Mouse monoclonal from BALB/c hybridoma, tested as hybridoma supernatant; also called 28C2 antibody) VH: QVTLKASGPGIVQPSQTLSLTCSFSGFSLNTSGMGVGWIRQPSGKGLEWLAHIWWDDDKRYNPALKSRLTISKDTSNNQIFLKIASVDTADTATYYCARSHYYGTFYFDYWGQGTTLTVSS VL: DVQITQSPSYLAASPGETITINCRASKSISKYLAWYQEKPGTTYKLLIYSGSTLQSGIPSRFSGSGSGTDFTLTISSLEPEDFAMYYCQQHIEYPWTFGGGTKLEIKR
binds	9D6 (antibody, V domains shown, Mouse monoclonal from BALB/c hybridoma, tested as hybridoma supernatant; also called 9D6 antibody) VH: QVTLKESGPGILQPSQTLSLTCSFSGFSLSTSGMGVGWIRQSSGKGLEWLAHIWWDDDKRYNPTLKSRLTISKDTSNNQVFLKIANMDTADIATYYCARSHYNGTFYFDFWGQGITLTVSS VL: DVQITQSPSYLAASPGETITINCRASKSISKYLAWYQEKPGKTNKLLIYSGSTLQSGIPSRFSGSGSGTDFTLTISTLEPEDFAMYYCQQHIEYPWTFGGGTKLEIKR
binds	4B11 (antibody, V domains shown, Mouse monoclonal from BALB/c hybridoma, tested as hybridoma supernatant; also called 4B11 antibody) VH: EVKLVESGGGLVKPGGSLKLSCAASGFTFSSYAMSWVRQTPEKRLAWVASISSGGNIYFPDSVKGRFTISRDDARNILYLQMRSLRSEDTAMYYCARGGDYGYAMDYWGQGTSVTVSS VL: ENVLTQSPAIMSASLGEKVTMNCRASSSVNYMYWYQQKSDASPKLWIFYTSNLAPGVPARFSGSGSGNSYSLTISSMEGEDAATYYCQQFSSSPWTFGGGSKLEIKR
binds	36A8 (antibody, V domains shown, Mouse monoclonal from BALB/c hybridoma, tested as hybridoma supernatant; also called 36A8 antibody) VH: EVRLVESGGGLVKPGGSLKLSCAASGFTFSTYAMSWVRQTPEKRLEWVASINGGGSTYYPDSVKGRFTISRDNARNILYLQMRSLRSEDTAMYYCARGGDYGYALDYWGQGTSVTVSS VL: ENVLTQSPAIMSASLGEKVTMNCRASSSVNYMYWYQQKSDASPKLWIFYTSNLAPGVPARFSGSGSGNSYSLTISSMEGEDAATYYCQQFSSSPWTFGGGSKLEIKR
